Reference: publication PMC7758216
No constants are given. Whether binding was seen depends on the method and setting. Binding seen in cells or lysates may run through a third protein. Some entries that bind do so weakly or less than the wild type. Sequences can lack the tags named with a protein.

Protein sequences, listed by entry. Tags and fused reporters are not part of them.
UniProt P51159: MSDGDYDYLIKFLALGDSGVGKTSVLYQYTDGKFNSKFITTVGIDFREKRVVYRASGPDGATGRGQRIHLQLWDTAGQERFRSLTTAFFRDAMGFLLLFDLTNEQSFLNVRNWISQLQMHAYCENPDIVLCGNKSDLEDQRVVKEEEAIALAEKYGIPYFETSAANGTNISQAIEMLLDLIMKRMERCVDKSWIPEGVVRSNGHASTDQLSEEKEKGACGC

B1: T7-tagged MUNC13-4 (protein, UniProt B2RUP2 1-1085)
chain: MATHLSHPQRRPLLRQAIKIRRRRVRDLQDPPPQATQEVQVQSHHFSPEERDLLYEEALYTVLHRLGQPEPNHVKEASELLSYLQEAFQVQPEEHQQMLRRVRELEKPVFCLKATVKQAKGILGKDVSGFSDPYCLLGIEQKVGVAEGSPVSRRRQKAVVKHTIPEEETHRTQVKSQTLNPVWDETFILEFEDIANASFHLDMWDLDTVESVRQKLGELTDLHGLRRIFKEARKDKGQDDFLGNVVLRLQDLRCREDQWFPLEPCTETYPDRGQCHLQFQFIHKRRATAASRSQPSYTVHFHLLQQLVSHEVTQHQAGSTSWDASLSPQAVTILFLHATQKDLSDFHQSMAQWLAYSRLYQSLEFPSSCLLHPITSIEYQWIQGRLKAEQREELATSFTSLLAYGLSLIRKFRSVFPLSVSDSPSRLQSLLRVLVQMCKMKAFGELCPDSAPLSQLVSEALRMGTVEWFHLMQQHHQPMVQGILEAGKALLNLVQDVMGDLYQCRRTWNKIFHNVLKIDLFSMAFLELQWLVAKRVQDHTVAAGNLVSPDIGESLFQLYVSLKELCQLGPVPSDSREVLALDGFHRWFQPAIPSWLQKTYSVALERVQRAVQMDTLVPLGELTKHSTSAVDLSTCFAQISHTARQLDWPDPEEAFMITVKFVEDTCRLALVYCSLIKARARELSAVQKDQSQAADMLCVVVNNMEQLRLIIDKLPTQLAWEALEQRVGAVLEEGQLQNTLHAQLQGALAGLGHEIRTGVRTLAEQLEVGIATHIQKLIGVKESVLPEDAILPLMKFLEVKLCYMNTNLVQENFSSLLTLLWTHTLTVLVEVASSQRSSSLASGRLKVALQNLEVCFHAEGCGLPPEALHTDTFQALQNDLELQAASSRELIQKYFCSRIQQQAETTSERLGAVTVKVSYRASEQRLRVELLSASSLLPLDSNGSSDPFVQLTLEPRHEFPEVAPRETQKHKKELHPLFDETFEFLVPAEPCQKAWACLLLTVLDHDRLGADDLEGEAFLPLCRVPGLTDCAEPGEAPQMRLPLTYPAPNGDPILRLLESRKGDREAQAFVKLRRQRAKQASQHAP
B2: T7-tagged SLP2-A (protein, UniProt Q99N50-1 1-950)
chain: MIDLSFLTEEEQDAILKVLQRDAALKRAEEERVRHLPEKIKDDQQLKNMSGQWFYEAKAKRHRDKIHGADIIRASMRRKKLPAAAEQNKDTAMRAKESWVNNVNKDAVLPPEIAVVEEPEDDTDPAGPSSSLVDPASSVIDMSQESTRTPAVSLPKQRKNPFNSPKLPEDHSLQQTKPEQSKTGKAGLFQISKEGELSESKEKSSIPDMPRQQLEKPKQTVSTEPENASHTKAPIPKARKLIYKSNDLEKDDNQSFPRQRRDSLNARGAPRGILKRNSSSSSTDSETLRLNYNLDPKSKILSPGLTIHERISEKEFSLEDDSSTSSLEPLKHVRFSAVKNELPQSPRPVLGQEVGEFTVLESDQLQNGTEDAGDIEEFQNHPELSHKTPLSHYQLVSSPSDSGREREQLMSSGSAPRDEIPCHSDILPTGPQCVESSSVINGQQEKSSHFTKLPSELSKSPSDELTQCGEPEPSQTADHSFRDHRQGSEEEHSPVLKTLERRAARKLPSKSLEDIPSDSSNQAKVDNLPEELVRSAEDDQKADQEPDTNECIPGISTVPSLPDNQFSHPDKLKRMSKSVPAFLQDESDDRETDTASESSYQLRRYKKSPSSLTNLSSSSGMTSLSSASGSVMSVYSGDFGNLEVKGSVQFALDYVESLKELHVFVAQCKDLAAADVKKQRSDPYVKTYLLPDKGKMGKKKTLVVKKTLNPVYNEILRYKIERQFLKTQKLNLSVWHRDTFKRNSFLGEVELDLETWDWDSKQNKQLKWYPLKRKTAPVALETENRGEMKLALQYVPEPSPGKKLPTTGEVHIWVKECLDLPLLRGSHLNSFVKCTILPDTSRKSRQKTRAVGKTTNPVFNHTMVYDGFRPEDLMEACVELTVWDHYKLTNQFLGGLRIGFGTGKSYGTEVDWMDSTSEEVALWEKMVNSPNTWVEATLPLRMLLIAKLSK

Target: FLAG-tagged RAB27A (wild-type) (human) (UniProt P51159)
Assay: co-IP; COS-7 cells co-transfected 24 h; lysates (50 mM HEPES-KOH pH 7.2, 150 mM NaCl, 1 mM MgCl2, 1% Triton X-100) incubated 1 h at 4°C with anti-FLAG tag antibody-conjugated agarose beads (FLAG-RAB27A precipitated); T7-tagged effector detected by anti-T7 immunoblot

Binder | binding
B1 | binds
B2 | binds
